Results are given in words; binding and its absence hold for the method and conditions named. In cells and extracts the contact can be indirect. A yes stands for co-enrichment or nearness to the bait. Other partners may have been found.
molecular target: serotonin transporter, wildtype (WT SERT) (mouse (endogenous in midbrain synaptosomes)) (UniProt Q60857); test: affinity purification with mass spectrometry; SERT immunoprecipitated with C-terminal anti-SERT serum #48 cross-linked to protein A Dynabeads from midbrain synaptosomes (lysed in PBS + 0.7% DDM, 4°C) of WT, SERT Ala56 and SERT KO (negative control) mice; in-gel tryptic digestion, 8-step MudPIT LC-MS/MS; label-free quantification

Sequences of proteins named here, by UniProt entry; tags and fusion partners are left off.
UniProt Q60857: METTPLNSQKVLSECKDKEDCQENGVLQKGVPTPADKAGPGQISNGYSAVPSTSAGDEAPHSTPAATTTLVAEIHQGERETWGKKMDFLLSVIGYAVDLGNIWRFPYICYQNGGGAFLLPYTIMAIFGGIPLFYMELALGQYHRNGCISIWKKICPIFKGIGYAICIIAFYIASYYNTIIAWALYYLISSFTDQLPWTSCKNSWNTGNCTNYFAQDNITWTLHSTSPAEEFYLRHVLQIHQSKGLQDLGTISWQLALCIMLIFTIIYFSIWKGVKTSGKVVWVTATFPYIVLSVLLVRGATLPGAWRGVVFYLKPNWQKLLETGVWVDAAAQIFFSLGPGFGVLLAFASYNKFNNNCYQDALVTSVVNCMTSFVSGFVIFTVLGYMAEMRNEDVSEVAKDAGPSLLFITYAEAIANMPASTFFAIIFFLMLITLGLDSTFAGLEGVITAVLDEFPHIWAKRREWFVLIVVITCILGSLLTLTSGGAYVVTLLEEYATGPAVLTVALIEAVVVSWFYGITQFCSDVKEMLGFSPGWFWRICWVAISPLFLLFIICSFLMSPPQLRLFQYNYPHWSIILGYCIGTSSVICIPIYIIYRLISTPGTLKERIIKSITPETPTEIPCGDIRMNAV

binding	Binder
binds	Magi3 (protein, UniProt Q9EQJ9 1-1476) MSKTLKKKKHWLSKVQECAVSWAGPPGDLGAEIRGGAERGEFPYLGRLRDEAGGGGGTCCVVSGKAPSPGDVLLEVNGTPVSGLTNRDTLAVIRHFREPIRLKTVKPGKVINKDLRHYLSLQFQKGSIDHKLQQVIRDNLYLRTIPCTTRAPRDGEVPGVDYNFISVEQFKALEESGALLESGTYDGNFYGTPKPPAEPSPFQPDPVDQVLFDNEFDTESQRKRTTSVSKMERMDSSLPEEEEDEDKEAVNGSGSMETREMHSETSDCWMKTVPSYNQTNSSMDFRNYMMRDENLEPLPKNWEMAYTDTGMIYFIDHNTKTTTWLDPRLCKKAKAPEDCEDGELPYGWEKIEDPQYGTYYVDHLNQKTQFENPVEEAKRKKQLGQAEIHSAKTDVERAHFTRDPSQLKGVLVRASLKKSTMGFGFTIIGGDRPDEFLQVKNVLKDGPAAQDGKIAPGDVIVDINGNCVLGHTHADVVQMFQLVPVNQYVNLTLCRGYPLPDDSEDPVVDIVAATPVINGQSLTKGETCMNTQDFKLGAMVLDQNGKSGQILASDRLNGPSESSEQRASLASSGSSQPELVTIPLIKGPKGFGFAIADSPTGQKVKMILDSQWCQGLQKGDIIKEIYHQNVQNLTHLQVVEVLKQFPVGADVPLLILRGGPCSPTKTAKTKTDTKENSGSLETINEPIPQPMPFPPSIIRSGSPKLDPSEVYLKSKTLYEDKPPNTKDLDVFLRKQESGFGFRVLGGDGPDQSIYIGAIIPLGAAEKDGRLRAADELMCIDGIPVKGKSHKQVLDLMTTAARNGHVLLTVRRKIFYGEKQPEDESHQAFSQNGSPRLNRAELPTRSAPQEAYDVTLQRKENEGFGFVILTSKSKPPPGVIPHKIGRVIDGSPADRCGGLKVGDHISAVNGQSIVDLSHDNIVQLIKDAGVTVTLTVVAEEEHHGPPSGTNSARQSPALQHRPMGQAQANHIPGDRIALEGEIGRDVCSSYRHSWSDHKHLAQPDTAVISVVGSRHNQSLGCYPVELERGPRGFGFSLRGGKEYNMGLFILRLAEDGPAIKDGRIHVGDQIVEINGEPTQGITHTRAIELIQAGGNKVLLLLRPGTGLIPDHGDWDTNSPSSSNVIYDEQPPPLPSSHSASTFEESHVPATEDSLTRVQICEKAEELKDTVQEKKSTLNGSQPEMKYQSVHKTMSKKDPPRGSGHGEKSRLKGENGVTRRGRSASPKKSVNRHSEEHLEKIPRPLKSDPKEKSRDRSLSPRKGESKGRLTIKAGSGQDPYRKDRGRSSSPKKQQKIGGNSLSNTEGKLSEAGSRRAAGHPRDSTEQLPDGREKSGVSRKDLKQSQPGKTRTKSPEKKSSKVDETSLPSKKTSSTAGRVVSEKEKGKKPTAGETSRETVEHTQISAKQLKQEAQEKTALGNADDHKGRESEVTDRCRERAGCTPQSSSLVKKAPITPGPWRVPRANKVTGTTGMADKQL
binds	Cdkl5 (protein, UniProt Q3UTQ8 1-938) MKIPNIGNVMNKFEILGVVGEGAYGVVLKCRHKETHEIVAIKKFKDSEENEEVKETTLRELKMLRTLKQENIVELKEAFRRRGKLYLVFEYVEKNMLELLEEMPNGVPPEKVKSYIYQLIKAIHWCHKNDIVHRDIKPENLLISHNDVLKLCDFGFARNLSEGNNANYTEYVATRWYRSPELLLGAPYGKSVDMWSVGCILGELSDGQPLFPGESEIDQLFTIQKVLGPLPSEQMKLFYSNPRFHGLRFPAVNHPQSLERRYLGILNSVLLDLMKNLLKLDPADRYLTEQCLNHPTFQTQRLLDRSPSRSTKRKPYHVESSTLSNRNQSTKGAALQTHHRSNSKDIQNLSVGLPRAEEGLPANESFLNGNLAGATLSPMHTKTYQASTQPGSSSKDLTNNNIPHLLSPKEAKSKTEFDFNIDTKPSEGPGTKYLKSSTRSQQNRHSFMESSQSKAGTLQPSEKQSRHSYIDTIPQSSRSPSYRTKAKSHGALSDSKSVSNLSEARAQITETNTSRYFPSSCLDLNSPTSPTPTRHTDTRTLLSPSGRNNRNEGTLDSRRTTTRHSKTMEELKLPEHMDSSHSHSLSAPHESFSYGLGYTSPFSSQQRPHRHSMYVTRDKVRAKGLDGSLSIGQGMAARANSLQLLSPQPGEQLPPEMTVARPSVKESSREGASSFHTRQKSEGGVYHDPHSDDGTAPKENRHLYNDPVPRRVGSFYRVPSPRPDNSFHENNVSTRVSSLPSDSSSGTNHSKRQPGFDPWKSPENISHADQLKEKEKQGFFRSMKKKKKKTQTVPNTDGPDLLTLQKAIHSSSTASSRPKEWRPEKLSDLQTQSQPLKSLRKLLHLSSSTNHPASSDPRFQPLTAQQAKNSFSEIRIHPLSQATGGSSNIRQEPTPKGRPALQLPGSSLLRYNGWKHSRSRSSQPDEVIFLASHEKWKQ
binds	Gk (protein, UniProt Q64516 1-559) MAAAKKAVLGPLVGAVDQGTSSTRFLVFNSKTAELLSHHQVEIKQEFPREGWVEQDPKEILQSVYECIEKTCEKLGQLNIDISNIKAIGVSNQRETTVVWDKVTGEPLYNAVVWLDLRTQSTVENLSKRIPGNNNFVKSKTGLPLSTYFSAVKLRWLLDNVKKVQEAVEENRALFGTIDSWLIWSLTGGIHGGVHCTDVTNASRTMLFNIHSLEWDKELCEFFGIPMEILPNVRSSSEIYGLMKISHSLKAGALEGVPISGCLGDQSAALVGQMCFQDGQAKNTYGTGCFLLCNTGHKCVFSEHGLLTTVAYKLGRDKPVYYALEGSVAIAGAVIRWLRDNLGIIKSSEEIEKLAKEVGTSYGCYFVPAFSGLYAPYWEPSARGIICGLTQFTNKCHIAFAALEAVCFQTREILDAMNRDCGIPLSHLQVDGGMTSNKILMQLQADILYIPVVKPSMPETTALGAAMAAGAAEGVGVWSLEPEDLSAVTMERFEPQINAEESEIRYSTWKKAVMKSIGWVTTQSPESGDPSIFCSLPLGFFIVSSMVMLIGARYISGIP
binds	Mapk8ip2 (protein, UniProt Q9ERE9 1-830) MADRAEMFSLSTFHSLSPPGCRPPQDISLEEFDDEDLSEITDDCGLGLSYDSDHCEKDSLSLGRSEQPHPICSFQDDFQEFEMIDDNEEEDDEEEEEEEEEEEDGDRQGKAGGGPGSQALAGDSLIPSPSLEESHKLRPTTLHLTTLGAQDSLNNNNGGFTSAPPSSWQETVLRSPAQEPLKELPAPLLPAEEERHEVQSLARPGCDCEGNQPPEPPASSGGASPSSDPGIEADLRSHSSGGHEGRRSSQELSSPGSDSEDAGGARLGRMISSISETELELSSDGGSSSGRSSHLTNSIEEASSPASEPEPEPEPLHEPPRRPAFLPVGQDDTNSEYESGSESEPDLSEDADSPWLLSNLVSRMISEGSSPIRCPGQCLSPAPRLPEEAASQANSVPQDCQDPEAGPHVELVDMDTLCGPPPPAPAAPRLGPAQPGPCLFLSNPTRDTITPLWATPGRTARPGRSCSAACSEEEEEDEEEDEEDEEDAEDSVVPPGSRTTGSTAPLDASLVYDAVKYTLVVDEHTQLELVSLRRCAGLGNDSEEDSSCEASEEEAGATLLGSDQVPEDASPDSPDLTFSKKFLNVFVNSTSRSSSTESFGLFSCVVNGEEREQTHRAVFRFIPRHPDELELDVDDPVLVEAEEDDFWFRGFNMRTGERGVFPAFYAHAVPGPAKDLLGSKRSPCWVDRFDVQFLGSVEVPCHQGNGILCAAMQKIATARKLTVHLRPPASCDLEISLRGVKLSLSGGGPEFQRCSHFFQMKNISFCGCHPRNSCYFGFITKHPLLSRFACHVFVSQESMRPVARSVGRAFLEYYQEHLAFACPTEDIYLE
binds	Fn3k (protein, UniProt Q9ER35 1-309) MEQLLRAQLHTTTLRAFGSSGGGCISEGYAYYTDSGPVFVKVNRRTQARQMFEGEMASLEALRNTGLVRVPKPMKVIDLPGGGAVFVMEHLKMKSLSSQASKLGEQMADLHLYNQKLREKSKTRQNTVGCGAEGAEPQGVTKFGFHTVTCCGFIPQVNEWQEDWPTFFTRHRLQAQLDLIEKDYADRETQELWSRLQVKIPDLFAGIEIVPALLHGDLWSGNVAEDDQGPVIYDPASFYGHSEFELAIASMFGGFPRSFFTAYHRKIPKAPGFDKRLLLYQLFNYLNHWNHFGREYRSPSLGVMRKLLR
binds	Map3k13 (protein, UniProt Q1HKZ5 1-959) MANPQEHLSCSSLPHLPLTENKTSGGRNELAAMGNHPSPKLPEDPQERGAIQSELMEITGSPISTTVLTSVSEDSRGQFENSVLQLREQDESEMTLSLGNSNTVDGENTNGPEDIKIQFSRSGSGSGGFLEGLFGCLRPVWNIIGKAYSTDYKLQQQDTWEVPFEEISELQWLGSGAQGAVFLGKFRAEEVAIKKVREQNETDIKHLRKLKHPNIIAFKGVCTQAPCYCIIMEYCAHGQLYEVLRAGRKITPRLLVDWSTGIASGMNYLHLHKIIHRDLKSPNVLVTHTDAVKISDFGTSKELSDKSTKMSFAGTVAWMAPEVIRNEPVSEKVDIWSFGVVLWELLTGEIPYKDVDSSAIIWGVGSNSLHLPVPSTCPDGFKILMKQTWQSKPRNRPSFRQTLMHLDIASADVLATPQETYFKSQAEWREEVKKHFEKIKSEGTCIHRLDEELIRRRREELRHALDIREHYERKLERANNLYMELSAIMLQLEMREKELLKREQAVEKKYPGTYKRHPVRPIIHPNAMEKLMKRKGVPHKAGVQTKRPDLLRSEGIPSTEAVPTASPLSGSPKMSTASSRSRYRSKPRHRRGNSRGSHSDFAAILKTQPAQENSPHPTYMHHTQAQCASVHQHNPLQQQYQQIPPAQPQSRHPRLNAHGQDIATCANNLRYFGPAAALRSPLSNHAQRQMPGSSPDLISTAMAADWRNSELDQDQVGPWGCCQAEPYDPCFQCRPEHSGSLDVPTTEPVGRSPDLSSSPAHNPLSGNAQGSERTGANGFSGCQSGISHQFTPPMLPQKTRPLQKSGDDSSEEEGEVDSEVEFPRRQRPHRCISSYQSYSTFSSENFSVSDGEEGNTSDHSNSPDESANRRQDRLAETLDDLLSQTPEAPIEISSHSDGLSDKECAVRRVKTQMSLGKLCAEERGYENPVQFGDSDCDSSEGECSDATVRTSKNYSSATW
binds	Cerk (protein, UniProt Q8K4Q7 1-531) MGAMGAAEPLHSVLWVKRRRCAVSLEPARALLRWWRSPEPGPSAPGADARSVLVSEIIAVEEKDDCEKHASSGRWHKMENPFAFTVHRVKRVRHHRWKWARVTFWSADEQLCHLWLQTLRGLLESLTSRPKHLLVFINPFGGKGQGKRIYEKTVAPLFTLASITTEIIITEHANQAKETLYEINTDSYDGIVCVGGDGMFSEVLHGVIGRTQQSAGIDPNHPRAVLVPSTLRIGIIPAGSTDCVCYSTVGTNDAETSALHIIIGDSLAIDVSSVHYHNTLLRYSVSLLGYGFYGDLIKDSEKKRWMGLVRYDFSGLKTFLSHQYYEGTLSFLPAQHTVGSPRDNKPCRAGCFVCRQSKQQLEEEEKKALYGLENAEEMEEWQVTCGKFLAINATNMSCACPRSPGGLSPFAHLGDGSSDLILIRKCSRFNFLRFLIRHTNQEDQFDFTFVEVYRVKKFHFTSKHVEDEDNDSKEQEKQKFGKICKDRPSCTCSASRSSWNCDGEVMHSPAIEVRVHCQLVRLFARGIEEES

Reference: publication PMC7295033
